# Experimental data: PubChem BioAssay AID1259405 (NCATS, 2018)
# Purpose: 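Knock-downs that lift recombinant protein yield in hamster ovary cells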 (primary screen)
# Cell system: Chinese hamster CHO-K1 ovary cells with stable secreted eGFP expression
# Knock-down reagent: single siRNA against mouse genes, 0.8 pmol siRNA per well (2 µl of 400 nM stock)
# Timing: 3 days
# Read-out: 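Percent of the per-plate non-targeting control median for intracellular GFP per well by laser scanning cytometry and for cell viability by ATP luminescence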
# Direction: GFP, % of control: higher = more GFP per well, higher productivity; viability (ATP), % of control: higher = more viable cells (more ATP)
# Rule for the call: 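a knock-down is called active if GFP reaches 120% or more of non-targeting control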
# The deposit covers about 50,000 reagents; shown is a part drawn at random. Over the whole deposit, about 4,000 (8%) were called active. 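Mouse siRNA library applied to hamster cells; one well for each siRNA.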 The numbers tell different reagents against one gene apart.
gene symbol,siRNA no.,"GFP, % of control","viability (ATP), % of control",call
Eny2 (ENY2 transcription and export complex 2 subunit),1,74.8,80.1,inactive
Eny2 (ENY2 transcription and export complex 2 subunit),2,78.7,79.5,inactive
Eny2 (ENY2 transcription and export complex 2 subunit),3,53.1,58.4,inactive
Zfp691 (zinc finger protein 691),1,59.5,57.7,inactive
Zfp691 (zinc finger protein 691),2,73.2,96.4,inactive
Neto1 (neuropilin (NRP) and tolloid (TLL)-like 1),1,71,79.1,inactive
Neto1 (neuropilin (NRP) and tolloid (TLL)-like 1),2,133,80.8,active
Chd3 (chromodomain helicase DNA binding protein 3),1,80.9,54.6,inactive
Chd3 (chromodomain helicase DNA binding protein 3),2,109,56,inactive
Chd3 (chromodomain helicase DNA binding protein 3),3,69.4,59.8,inactive
Shkbp1 (Sh3kbp1 binding protein 1),1,21.5,19.3,inactive
Shkbp1 (Sh3kbp1 binding protein 1),2,80.2,82.9,inactive
Shkbp1 (Sh3kbp1 binding protein 1),3,64.4,72.2,inactive
Cab39l (calcium binding protein 39-like),1,56.2,52.5,inactive
Cab39l (calcium binding protein 39-like),2,29.7,34.6,inactive
Cab39l (calcium binding protein 39-like),3,70.8,60.2,inactive
Chtop (chromatin target of PRMT1),1,73.3,76.3,inactive
Chtop (chromatin target of PRMT1),2,57.8,89.7,inactive
Chtop (chromatin target of PRMT1),3,85.6,44.2,inactive
Ndufaf3 (NADH:ubiquinone oxidoreductase complex assembly factor 3),1,57.8,50.4,inactive
Ndufaf3 (NADH:ubiquinone oxidoreductase complex assembly factor 3),2,92.8,46.5,inactive
Ndufaf3 (NADH:ubiquinone oxidoreductase complex assembly factor 3),3,70.1,85,inactive
Ndufa6 (NADH:ubiquinone oxidoreductase subunit A6),1,104,143,inactive
Ndufa6 (NADH:ubiquinone oxidoreductase subunit A6),2,93.2,94.8,inactive
Luc7l3 (LUC7-like 3 (S. cerevisiae)),1,41.1,42.3,inactive
Luc7l3 (LUC7-like 3 (S. cerevisiae)),2,92.5,69,inactive
Luc7l3 (LUC7-like 3 (S. cerevisiae)),3,102,77.7,inactive
Atl1 (atlastin GTPase 1),1,105,108,inactive
Atl1 (atlastin GTPase 1),2,72.5,87.8,inactive
Atl1 (atlastin GTPase 1),3,35.4,62.6,inactive
Uros (uroporphyrinogen III synthase),1,50.5,52.6,inactive
Uros (uroporphyrinogen III synthase),2,142,90.3,active
Uros (uroporphyrinogen III synthase),3,81.8,84.2,inactive
Cfb (complement factor B),1,42,64.9,inactive
Cfb (complement factor B),2,46.7,67.1,inactive
Grhl3 (grainyhead like transcription factor 3),1,46,55.5,inactive
Grhl3 (grainyhead like transcription factor 3),2,78.3,86.6,inactive
Grhl3 (grainyhead like transcription factor 3),3,54.1,87.7,inactive
Wbp4 (WW domain binding protein 4),1,75.3,65.3,inactive
Wbp4 (WW domain binding protein 4),2,62.8,62.5,inactive
Wbp4 (WW domain binding protein 4),3,84.2,85.5,inactive
Actl6a (actin-like 6A),1,37.8,33,inactive
Actl6a (actin-like 6A),2,62.7,76.5,inactive
Or4f54 (olfactory receptor family 4 subfamily F member 54),1,30.8,84.5,inactive
Or4f54 (olfactory receptor family 4 subfamily F member 54),2,36.7,50.1,inactive
Or4f54 (olfactory receptor family 4 subfamily F member 54),3,77,77.6,inactive
"Tnfrsf1a (tumor necrosis factor receptor superfamily, member 1a)",1,77.1,53.2,inactive
"Tnfrsf1a (tumor necrosis factor receptor superfamily, member 1a)",2,61.8,37.9,inactive
"Tnfrsf1a (tumor necrosis factor receptor superfamily, member 1a)",3,71.6,74.1,inactive
Pcolce2 (procollagen C-endopeptidase enhancer 2),1,101,106,inactive
Pcolce2 (procollagen C-endopeptidase enhancer 2),2,110,94.8,inactive
Ric1 (RAB6A GEF complex partner 1),1,48.7,69,inactive
Ric1 (RAB6A GEF complex partner 1),2,52.5,72.8,inactive
Ric1 (RAB6A GEF complex partner 1),3,131,145,active
"Gp1ba (glycoprotein 1b, alpha polypeptide)",1,117,98.9,inactive
"Gp1ba (glycoprotein 1b, alpha polypeptide)",2,128,73.6,active
"Gp1ba (glycoprotein 1b, alpha polypeptide)",3,100,70.2,inactive
Atg2a (autophagy related 2A),1,50,47.7,inactive
Atg2a (autophagy related 2A),2,69.1,74,inactive
Atg2a (autophagy related 2A),3,128,132,active
Grpr (gastrin releasing peptide receptor),1,82.3,82.4,inactive
Grpr (gastrin releasing peptide receptor),2,74.3,88.2,inactive
Grpr (gastrin releasing peptide receptor),3,100,93.3,inactive
Eps15 (EGFR pathway substrate 15),1,123,120,active
Eps15 (EGFR pathway substrate 15),2,115,88.8,inactive
Eps15 (EGFR pathway substrate 15),3,79,82.3,inactive

6 entries already listed, ordered by “GFP, % of control”, lowest first:
gene symbol,siRNA no.,"GFP, % of control","viability (ATP), % of control",call
Atl1 (atlastin GTPase 1),3,35.4,62.6,inactive
Luc7l3 (LUC7-like 3 (S. cerevisiae)),1,41.1,42.3,inactive
Atl1 (atlastin GTPase 1),2,72.5,87.8,inactive
Luc7l3 (LUC7-like 3 (S. cerevisiae)),2,92.5,69,inactive
Luc7l3 (LUC7-like 3 (S. cerevisiae)),3,102,77.7,inactive
Atl1 (atlastin GTPase 1),1,105,108,inactive

Additional results:
gene symbol,siRNA no.,"GFP, % of control","viability (ATP), % of control",call
Dnase1l3 (deoxyribonuclease 1-like 3),1,76.4,77.3,inactive
Dnase1l3 (deoxyribonuclease 1-like 3),2,110,103,inactive
Dnase1l3 (deoxyribonuclease 1-like 3),3,57.1,51,inactive
Slc2a10,1,59.3,60.5,inactive
Slc2a10,2,32.2,31.7,inactive
Slc2a10,3,31.5,45,inactive
Itln1 (intelectin 1 (galactofuranose binding)),1,44,59,inactive
Itln1 (intelectin 1 (galactofuranose binding)),2,100,73.5,inactive
Fkbp14 (FK506 binding protein 14),1,66.2,64,inactive
Fkbp14 (FK506 binding protein 14),2,118,90.3,inactive
Fkbp14 (FK506 binding protein 14),3,91.9,94.8,inactive
"Zmym5 (zinc finger, MYM-type 5)",1,76.2,91.8,inactive
"Zmym5 (zinc finger, MYM-type 5)",2,38.7,33.6,inactive
"Zmym5 (zinc finger, MYM-type 5)",3,104,104,inactive
Ror2 (receptor tyrosine kinase-like orphan receptor 2),1,59.9,48,inactive
H2al1m (H2A histone family member L1M),1,89.9,83.3,inactive
H2al1m (H2A histone family member L1M),2,83.6,64.6,inactive
H2al1m (H2A histone family member L1M),3,71.5,76.9,inactive
Tyk2 (tyrosine kinase 2),1,58.3,78.6,inactive
Tyk2 (tyrosine kinase 2),2,77.1,67.3,inactive
Tyk2 (tyrosine kinase 2),3,47.5,53,inactive
"Syne2 (spectrin repeat containing, nuclear envelope 2)",1,120,92.7,active
"Syne2 (spectrin repeat containing, nuclear envelope 2)",2,83.9,84.9,inactive
"Syne2 (spectrin repeat containing, nuclear envelope 2)",3,95.7,110,inactive
Il1rn (interleukin 1 receptor antagonist),1,66.9,62.4,inactive
Il1rn (interleukin 1 receptor antagonist),2,54,54,inactive
Il1rn (interleukin 1 receptor antagonist),3,53.5,76.2,inactive
Mt4 (metallothionein 4),1,59.5,79.2,inactive
Mt4 (metallothionein 4),2,78.3,102,inactive
Mt4 (metallothionein 4),3,82.3,55.2,inactive
Prickle3 (prickle planar cell polarity protein 3),1,146,80.2,active
Prickle3 (prickle planar cell polarity protein 3),2,102,96.8,inactive
Klk1b1 (kallikrein 1-related peptidase b1),1,66.8,65.4,inactive
Klk1b1 (kallikrein 1-related peptidase b1),2,30.2,53.4,inactive
Klk1b1 (kallikrein 1-related peptidase b1),3,49.3,50.3,inactive
Zfp251 (zinc finger protein 251),1,42,63.6,inactive
Zfp251 (zinc finger protein 251),2,61.5,76.6,inactive
Zfp251 (zinc finger protein 251),3,42.8,72.3,inactive
"Akr7a5 (aldo-keto reductase family 7, member A5)",1,90.1,57,inactive
"Akr7a5 (aldo-keto reductase family 7, member A5)",2,102,63,inactive
"Akr7a5 (aldo-keto reductase family 7, member A5)",3,88.7,76.7,inactive
